Measured values taken from patent US11439675B2, “Method for treating damage induced by sleep deprivation” (PRESIDENT AND FELLOWS OF HARVARD COLLEGE, priority 2017, dated 2022).
At least one structure is not confirmed: it was looked up by name or label, or the drawing left a doubt.

Test system: sleep-deprived flies
Assay: Survival of sleep-deprived flies (thermogenetic SD, Gal4/UAS-TrpA1) after administering the compound
Assay type: in vivo, Drosophila
Conditions: FIG. 11

Structure (SMILES): O=C(O)CCCc1ccccc1 [PBA, 4-phenylbutyrate]
- survival of the animal following SD: extends survival
